# Library compounds against nucleic acid targets

From ROBIN, a set of small-molecule microarray screens (doi:10.1002/anie.202211358).

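Each compound is printed as two spots on a slide made to bind it covalently, so it has no test concentration; the read-out is fluorescence of the bound, labelled oligonucleotide. The data file lists only calls. An earlier report of the laboratory on the PreQ1, TPP and SAM-II riboswitches (doi:10.1038/s41467-019-09493-3) used 1 µM RNA for 2 h and required a mean Z-score above 3 (spot signal-to-noise against the whole library), a score well above that on a control array, and duplicate spots agreeing (coefficient of variation under 100); it then also set aside compounds that hit other targets, which this list keeps. The cut-offs behind this list may differ. The calls come from the array alone, and fixing a compound to the slide can hide its binding.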
Key: active = hit, inactive = tested without a hit.
This is an unselected part of the compounds tested.
A target missing from an entry has no call listed here.

Targets, with sequences 5′ to 3′:
PreQ1: PreQ1 riboswitch RNA pseudoknot, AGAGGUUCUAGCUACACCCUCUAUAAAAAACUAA. From B. subtilis. Hit rate about 0.7% of about 24,000 compounds.
SAM-II: SAM-II riboswitch RNA pseudoknot, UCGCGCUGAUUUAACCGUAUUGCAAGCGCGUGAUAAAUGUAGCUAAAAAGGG. Hit rate about 1% of about 21,000 compounds.
TPP: TPP riboswitch RNA three-way junction, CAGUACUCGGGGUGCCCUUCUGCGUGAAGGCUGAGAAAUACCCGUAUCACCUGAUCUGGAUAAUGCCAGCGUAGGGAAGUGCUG. Hit rate about 0.7% of about 24,000 compounds.

With CC(C)NCC(O)COc1ccc(CCOCC2CC2)cc1 (centres undefined) the screen gave PreQ1: inactive; SAM-II: inactive; TPP: inactive.
With CS(=O)(=O)NCCNc1cc(Cl)ccc1[N+](=O)[O-] the screen gave PreQ1: inactive; SAM-II: inactive; TPP: inactive.
With COCc1cccc(C(=O)NCC[C@@H]2CCCN2)c1 the screen gave PreQ1: inactive; SAM-II: inactive; TPP: inactive.
With O=C(NCCO)c1nn(-c2ccccc2Cl)nc1CO the screen gave PreQ1: inactive; TPP: inactive.
With CN(Cc1cc2cc(F)ccc2[nH]1)C(=O)c1ccccc1C1CCNC1 (centres undefined) the screen gave PreQ1: inactive; SAM-II: inactive; TPP: inactive.
With Cc1cc(C)c(NC(=O)c2sc3nc(C)c(C)c(C)c3c2N)c(C)c1 the screen gave PreQ1: inactive; SAM-II: inactive; TPP: inactive.
With NCCN1C(=O)CC[C@H]2CN(C(=O)c3nc4ccccn4c3F)CC[C@H]21 the screen gave PreQ1: inactive; SAM-II: inactive; TPP: inactive.
With CN(C)C[C@H]1C[C@H](CO)CN(Cc2cccc(N3CCOCC3)c2)C1 the screen gave PreQ1: inactive; SAM-II: inactive; TPP: inactive.
With O=C1c2cccnc2C(Nc2ccc(S(=O)(=O)N3CCCCC3)cc2)N1Cc1ccccc1 (centres undefined) the screen gave PreQ1: inactive; SAM-II: inactive; TPP: inactive.
With Nc1cc(OC(=O)c2ccccc2F)nn1S(=O)(=O)c1ccc(F)cc1 the screen gave PreQ1: inactive; SAM-II: inactive; TPP: inactive.
With CC1CCC(Nc2nc3ccccc3c3nc(-c4cccnc4)nn23)CC1 (centres undefined) the screen gave PreQ1: inactive; TPP: inactive.
With COC(=O)COc1cc(-c2ccc(Cl)cc2)nc2ccc(N)cc12 the screen gave PreQ1: inactive; SAM-II: inactive; TPP: inactive.
With CC1(C)NC(=O)N(CC(O)COc2ccccc2Br)C1=O (centres undefined) the screen gave PreQ1: inactive; SAM-II: inactive; TPP: inactive.
With CCc1ccc(Nc2nc(C(=O)O)nc3ccccc23)cc1 the screen gave PreQ1: inactive; SAM-II: inactive; TPP: inactive.
With Cn1c(=O)[nH]c(=O)c2c1nc(N(CCO)CCO)n2CCc1ccccc1 the screen gave PreQ1: inactive; SAM-II: inactive; TPP: inactive.
With O=C(C=Cc1ccc(O)cc1)c1ccc(O)cc1O the screen gave PreQ1: inactive; SAM-II: inactive; TPP: inactive.
With CCOC(=O)c1nnn(-c2nonc2N)c1CSc1nc2ccccc2[nH]1 the screen gave PreQ1: inactive; SAM-II: inactive; TPP: inactive.
With Cc1cc(-c2cccc3c2CCNC3)cnc1-n1cnnc1 the screen gave PreQ1: inactive; SAM-II: inactive; TPP: inactive.
With CCOC(=O)c1ccc2nc(C)cc(Nc3ccc(C(=O)O)cc3)c2c1 the screen gave PreQ1: inactive; SAM-II: inactive; TPP: inactive.
With C=CCN1C(=O)C2(c3ccccc31)c1c(oc3ccc(C)cc3c1=O)C(=O)N2CCO (centres undefined) the screen gave PreQ1: active; TPP: active.
With c1ccc(-c2nc3c(c(NCc4nc[nH]n4)n2)CCNCC3)cc1 the screen gave PreQ1: inactive; SAM-II: inactive; TPP: inactive.
With CN(C)C(=O)COC(=O)Cc1ccc(OC(=O)c2ccc(N=C(N)N)cc2)cc1 the screen gave PreQ1: inactive; SAM-II: inactive; TPP: inactive.
With N[C@H]1CCN(C(=O)c2cccc(-c3ncc[nH]3)c2)C1 the screen gave PreQ1: inactive; SAM-II: inactive; TPP: inactive.
With CCCCNc1nc(-c2ccccc2)cc(C(F)(F)F)c1C(N)=O the screen gave PreQ1: inactive; SAM-II: inactive; TPP: inactive.
With c1ccn2c(Nc3ccc4c(c3)OCCO4)c(-c3ccsc3)nc2c1 the screen gave PreQ1: inactive; SAM-II: inactive; TPP: inactive.
With COc1ccc(-c2nc3cnccn3c2Nc2ccc(C(C)C)cc2)cc1OC the screen gave PreQ1: inactive; TPP: inactive.
With CCC1CCC(C)N(N=O)C1 (centres undefined) the screen gave PreQ1: inactive; SAM-II: inactive; TPP: inactive.
With CCOc1ccc(CNC2=NS(=O)(=O)C(c3ccc(Cl)cc3)=C2C)cc1 the screen gave PreQ1: inactive; TPP: inactive.
With Cc1ncccc1OC1(C(=O)N2CCc3c([nH]c4ccccc34)C2)CCNCC1 the screen gave PreQ1: inactive; SAM-II: inactive; TPP: inactive.
With OC(COc1ccccc1)CN1CCN(c2ccccc2)CC1 (centres undefined) the screen gave PreQ1: inactive; SAM-II: inactive; TPP: inactive.

The first 2 entries again:

compound,PreQ1,SAM-II,TPP
CC(C)NCC(O)COc1ccc(CCOCC2CC2)cc1 (centres undefined),inactive,inactive,inactive
CS(=O)(=O)NCCNc1cc(Cl)ccc1[N+](=O)[O-],inactive,inactive,inactive